Measured values taken from patent US20110129459A1.
Residue numbers refer to the chain shown, from its start. These are yes or no findings as the source states them, for the method shown. Some results given as binding are weak or reduced against the parent protein; the word gives no strength.

T1: rhNR10 (recombinant human NR10) (human) (UniProt Q8NI17)
T1 sequence: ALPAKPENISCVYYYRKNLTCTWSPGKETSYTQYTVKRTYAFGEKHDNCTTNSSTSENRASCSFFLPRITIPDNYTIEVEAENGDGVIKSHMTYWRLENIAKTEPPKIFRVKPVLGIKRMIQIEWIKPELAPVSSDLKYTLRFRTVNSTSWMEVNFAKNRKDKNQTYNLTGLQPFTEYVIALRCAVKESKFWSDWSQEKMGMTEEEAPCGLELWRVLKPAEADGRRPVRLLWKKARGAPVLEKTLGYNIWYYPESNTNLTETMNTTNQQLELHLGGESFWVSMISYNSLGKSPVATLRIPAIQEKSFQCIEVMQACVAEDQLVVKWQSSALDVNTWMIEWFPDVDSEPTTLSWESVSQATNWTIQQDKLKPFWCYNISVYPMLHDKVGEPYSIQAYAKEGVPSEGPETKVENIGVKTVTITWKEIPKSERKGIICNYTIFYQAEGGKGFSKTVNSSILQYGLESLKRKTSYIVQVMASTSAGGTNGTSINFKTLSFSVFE

B1: H0L17 (H0-M58 / L17) (antibody, V domains shown)
VH: QVQLVQSGAEVKKPGASVKVSCKASGYTFTGYIMNWVRQAPGQGLEWMGLINPYNGGTSYNQKFKGRVTITADESTSTAYMELSSLRSEDTAVYYCARDGYDDGPYTMDYWGQGTLVTVSS
VL: DIQMTQSPSSLSASVGDRVTITCQASEDIYSFVAWYQQKPGKAPKLLIYNAQTEAQGVPSRFSGSGSGTDFTLTISSLQPEDFATYYCQHHYDSPLTFGGGTKVEIKR
B2: H30L17 (H30-M58 / L17) (antibody, V domains shown)
VH: B1 VH with S59D, Q62P, K63Q, K65Q, G66D, M108L, D109E, Y110T
VL: B1 VL
B3: H97L50 (H97-M58 / L50) (antibody, V domains shown)
VH: B1 VH with K63Q, K65Q, G66D, M108L, D109E, Y110T
VL: B1 VL with V33L
B4: Ha111L0 (Ha111-SKSC / L0) (antibody, V domains shown)
VH: B1 VH with M34L
VL: B1 VL with Q24R, A25T, D28N, V33L, Q52K, E54L, Q56K, D93E
B5: H0La326 (H0-SKSC / La326) (antibody, name in Kabat numbering, V domains shown)
VH: B1 VH
VL: B1 VL with Q24R, A25T, D28N, V33L, Q52K, E54L, Q56K, D93E, T97F
B6: H42L17 (H42-M58 / L17) (antibody, V domains shown)
VH: QVQLVQSGAEVKKPGASVKVSCKASGYTFTGYVLNWVRQAPGQGLEWMGLINPYNGGTDYNPQFQDRVTITADKSTSTAYMELSSLRSEDTAVYYCARDGYDDGPYTLETWGQGTLVTVSS
VL: B1 VL
B7: H34L17 (H34-M58 / L17) (antibody, V domains shown)
VH: B6 VH with V33A, L34M, K74E
VL: B1 VL
B8: H17L11 (H17-M58 / L11) (antibody, V domains shown)
VH: B6 VH with K74E, L108M, E109D, T110Y
VL: B1 VL with A25T, S31R
B9: Ha101L0 (Ha101-SKSC / L0) (antibody, V domains shown)
VH: B1 VH with I33V
VL: B1 VL with Q24R, A25T, D28N, V33L, Q52K, E54L, Q56K, D93E
B10: H92L17 (H92-M58 / L17) (antibody, V domains shown)
VH: B6 VH with V33A, L34M, D66G
VL: B1 VL
B11: H46L17 (H46-M58 / L17) (antibody, V domains shown)
VH: B6 VH with V33A, L34M
VL: B1 VL
B12: Ha204L0 (Ha204-SKSC / L0) (antibody, V domains shown)
VH: B1 VH with S59D
VL: B1 VL with Q24R, A25T, D28N, V33L, Q52K, E54L, Q56K, D93E
B13: H19L12 (H19-M58 / L12) (antibody, V domains shown)
VH: B1 VH with I33A, S59D, Q62P, K63Q, K65Q, G66D
VL: B1 VL with A25T
B14: Ha401La402 (Ha401-SKSC / La402) (antibody, V domains shown)
VH: B1 VH with I33V, M34I, S59D
VL: B1 VL with A25T, D28N, S31R, Q52K, E54L, Q56K
B15: Ha219L0 (Ha219-SKSC / L0) (antibody, V domains shown)
VH: B1 VH with Q62P
VL: B1 VL with Q24R, A25T, D28N, V33L, Q52K, E54L, Q56K, D93E
B16: H28L17 (H28-M58 / L17) (antibody, V domains shown)
VH: B6 VH with K74E
VL: B1 VL
B17: H0La130 (H0-SKSC / La130) (antibody, V domains shown)
VH: B1 VH
VL: B1 VL with Q24R, A25T, D28N, S31R, Q52K, E54L, Q56K, D93E
B18: H44L17 (H44-M58 / L17) (antibody, V domains shown)
VH: B6 VH with V33I, L34M
VL: B1 VL
B19: Hp3Lp15 (Hp3-SKSC / Lp15) (antibody, V domains shown)
VH: B1 VH with K63Q, K65Q, G66D
VL: B1 VL with A25T, V33L, D93E
B20: H78L17 (H78-M58 / L17) (antibody, V domains shown)
VH: B6 VH with V33I, L34M, D66G
VL: B1 VL
B21: H57L17 (H57-M58 / L17) (antibody, V domains shown)
VH: B6 VH with V33I, L34M, D66G, K74E
VL: B1 VL
B22: H0La303 (H0-SKSC / La303) (antibody, V domains shown)
VH: B1 VH
VL: B1 VL with Q24R, A25T, D28N, V33L, Q52K, E54L, Q56K
B23: H0La328 (H0-SKSC / La328) (antibody, V domains shown)
VH: B1 VH
VL: B1 VL with Q24R, A25T, D28N, V33L, Q52K, E54L, Q56K, D93E, S94D
B24: H71L17 (H71-M58 / L17) (antibody, V domains shown)
VH: B6 VH with V33A, L34M, D66G, K74E
VL: B1 VL
B25: H98L50 (H98-M58 / L50) (antibody, V domains shown)
VH: B6 VH with V33I, L34M, D59S, P62Q
VL: B1 VL with V33L
B26: H0La134 (H0-SKSC / La134) (antibody, V domains shown)
VH: B1 VH
VL: B1 VL with Q24R, A25T, D28N, S31R, V33L, Q52K, E54L, Q56K, D93E
B27: Ha103L0 (Ha103-SKSC / L0) (antibody, V domains shown)
VH: B1 VH with M34I
VL: B1 VL with Q24R, A25T, D28N, V33L, Q52K, E54L, Q56K, D93E
B28: chimeric NS23 (human gamma1, kappa) (antibody, V domains shown)
VH: EVQLQQSGPELVKPGTSMKISCKASGYSFTGYIMNWVKQSHGKNLEWIGLINPYNGGAEYNQKFKDKATFTVDKSSSTAYMELLSLTSEDSAVYYCARDGYDDGPYTMDYWGQGTSVTVSS
VL: DIQMTQSPASLSASVGETVTFTCRANENIYSYLAWYQQKQGKSPQLLVYNAKTLAEGVPSRFSGSGSGTQFSLKINSLQPEDFGSYYCQHHYGTPPTFGGGTKLEIK

What follows are binders tested against T1, rhNR10 (recombinant human NR10) (human) (assay: SPR, Biacore T100; antibody captured on Protein A, rhNR10 as analyte).

binding | Binder
binds | B1
binds | B2
binds | B3
binds | B4
binds | B5
binds | B6
binds | B7
binds | B8
binds | B9
binds | B10
binds | B11
binds | B12
binds | B13
binds | B14
binds | B15
binds | B16
binds | B17
binds | B18
binds | B19
binds | B20
binds | B21
binds | B22
binds | B23
binds | B24
binds | B25
binds | B26
binds | B27

These binders were tested against cytoplasmic domain-lacking human NR10 on CHO cells (hNR10-expressing CHO cells) (human) (UniProt Q8NI17) (assay: FMAT competition; FMAT Blue-NS22 on hNR10-expressing CHO cells; competitor FMAT Blue-NS22).

binding | Binder
binds | B28

Each binder was assayed against cytoplasmic domain-lacking human NR10 on CHO cells (hNR10-expressing CHO cells) (human) (UniProt Q8NI17) (assay: FMAT competition on hNR10-expressing CHO cells: unlabeled chimeric antibody titrated against 8.8x10^-2 µg/ml FMAT Blue-NS22; FL1 = cell-bound labeled NS22).

binding | Binder
binds | B28
